# Results: the supplement of paper PMC12819154, “High-throughput peptide-centric local stability assay extends protein–ligand identification to membrane proteins, tissues and bacteria” (Nature Structural & Molecular Biology, 2025)
# The chains behind the UniProt entries cited, without tags or fusion partners. Where a name states a change or a piece, a line headed by the entry shows the natural chain unless it says otherwise.
# UniProt O70405: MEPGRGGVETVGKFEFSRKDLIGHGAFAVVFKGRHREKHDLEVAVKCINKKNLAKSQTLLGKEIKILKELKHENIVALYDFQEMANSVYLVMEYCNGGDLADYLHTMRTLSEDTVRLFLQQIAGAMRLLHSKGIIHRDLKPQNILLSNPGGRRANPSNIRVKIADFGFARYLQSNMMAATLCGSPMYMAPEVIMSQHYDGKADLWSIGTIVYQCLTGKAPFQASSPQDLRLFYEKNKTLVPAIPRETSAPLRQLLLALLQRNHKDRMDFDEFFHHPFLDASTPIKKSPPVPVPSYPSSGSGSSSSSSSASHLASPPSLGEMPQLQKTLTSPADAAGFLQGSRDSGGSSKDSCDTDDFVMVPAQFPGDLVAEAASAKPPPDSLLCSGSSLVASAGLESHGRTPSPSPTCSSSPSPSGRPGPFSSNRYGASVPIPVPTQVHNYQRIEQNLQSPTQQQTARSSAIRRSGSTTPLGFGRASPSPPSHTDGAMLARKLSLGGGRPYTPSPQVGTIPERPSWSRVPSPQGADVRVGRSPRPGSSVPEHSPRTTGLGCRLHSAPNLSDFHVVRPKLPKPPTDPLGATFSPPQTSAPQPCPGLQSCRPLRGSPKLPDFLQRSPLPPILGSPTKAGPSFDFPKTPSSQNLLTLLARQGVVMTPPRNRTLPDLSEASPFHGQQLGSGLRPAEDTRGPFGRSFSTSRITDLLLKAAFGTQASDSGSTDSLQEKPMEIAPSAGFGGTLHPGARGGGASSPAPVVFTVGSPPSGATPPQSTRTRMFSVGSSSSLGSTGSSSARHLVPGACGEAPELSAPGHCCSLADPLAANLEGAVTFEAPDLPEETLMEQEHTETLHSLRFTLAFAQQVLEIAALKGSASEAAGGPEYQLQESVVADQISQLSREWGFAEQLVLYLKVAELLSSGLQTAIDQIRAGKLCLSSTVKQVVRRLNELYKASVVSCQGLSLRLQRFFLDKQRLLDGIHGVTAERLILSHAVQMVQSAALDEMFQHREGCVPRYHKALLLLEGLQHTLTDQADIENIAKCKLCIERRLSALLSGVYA
# UniProt O35621: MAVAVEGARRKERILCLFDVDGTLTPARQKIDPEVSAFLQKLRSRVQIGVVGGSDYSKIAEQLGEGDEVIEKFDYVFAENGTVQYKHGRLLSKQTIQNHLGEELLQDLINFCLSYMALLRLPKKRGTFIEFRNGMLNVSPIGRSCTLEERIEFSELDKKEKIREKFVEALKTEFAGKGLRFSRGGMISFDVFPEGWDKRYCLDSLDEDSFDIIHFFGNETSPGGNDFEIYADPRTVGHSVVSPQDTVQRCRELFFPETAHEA
# UniProt O70333, whole entry: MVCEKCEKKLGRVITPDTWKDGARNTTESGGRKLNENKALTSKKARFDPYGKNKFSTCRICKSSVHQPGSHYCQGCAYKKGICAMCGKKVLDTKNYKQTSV
# UniProt O70152: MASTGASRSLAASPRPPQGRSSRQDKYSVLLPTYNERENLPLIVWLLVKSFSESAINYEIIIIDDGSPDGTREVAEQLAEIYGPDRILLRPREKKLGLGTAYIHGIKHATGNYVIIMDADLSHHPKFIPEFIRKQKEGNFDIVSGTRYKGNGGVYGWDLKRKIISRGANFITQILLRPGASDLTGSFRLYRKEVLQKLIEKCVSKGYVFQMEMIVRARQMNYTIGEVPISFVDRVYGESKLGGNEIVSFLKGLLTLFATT
# UniProt O70250: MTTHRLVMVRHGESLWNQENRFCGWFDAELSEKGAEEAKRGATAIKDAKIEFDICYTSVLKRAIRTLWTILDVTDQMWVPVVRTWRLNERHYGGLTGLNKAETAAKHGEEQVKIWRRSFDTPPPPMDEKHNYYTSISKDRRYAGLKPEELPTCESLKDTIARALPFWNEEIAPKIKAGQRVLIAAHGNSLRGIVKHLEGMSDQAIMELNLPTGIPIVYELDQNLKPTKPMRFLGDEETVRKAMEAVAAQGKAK
# UniProt O54967: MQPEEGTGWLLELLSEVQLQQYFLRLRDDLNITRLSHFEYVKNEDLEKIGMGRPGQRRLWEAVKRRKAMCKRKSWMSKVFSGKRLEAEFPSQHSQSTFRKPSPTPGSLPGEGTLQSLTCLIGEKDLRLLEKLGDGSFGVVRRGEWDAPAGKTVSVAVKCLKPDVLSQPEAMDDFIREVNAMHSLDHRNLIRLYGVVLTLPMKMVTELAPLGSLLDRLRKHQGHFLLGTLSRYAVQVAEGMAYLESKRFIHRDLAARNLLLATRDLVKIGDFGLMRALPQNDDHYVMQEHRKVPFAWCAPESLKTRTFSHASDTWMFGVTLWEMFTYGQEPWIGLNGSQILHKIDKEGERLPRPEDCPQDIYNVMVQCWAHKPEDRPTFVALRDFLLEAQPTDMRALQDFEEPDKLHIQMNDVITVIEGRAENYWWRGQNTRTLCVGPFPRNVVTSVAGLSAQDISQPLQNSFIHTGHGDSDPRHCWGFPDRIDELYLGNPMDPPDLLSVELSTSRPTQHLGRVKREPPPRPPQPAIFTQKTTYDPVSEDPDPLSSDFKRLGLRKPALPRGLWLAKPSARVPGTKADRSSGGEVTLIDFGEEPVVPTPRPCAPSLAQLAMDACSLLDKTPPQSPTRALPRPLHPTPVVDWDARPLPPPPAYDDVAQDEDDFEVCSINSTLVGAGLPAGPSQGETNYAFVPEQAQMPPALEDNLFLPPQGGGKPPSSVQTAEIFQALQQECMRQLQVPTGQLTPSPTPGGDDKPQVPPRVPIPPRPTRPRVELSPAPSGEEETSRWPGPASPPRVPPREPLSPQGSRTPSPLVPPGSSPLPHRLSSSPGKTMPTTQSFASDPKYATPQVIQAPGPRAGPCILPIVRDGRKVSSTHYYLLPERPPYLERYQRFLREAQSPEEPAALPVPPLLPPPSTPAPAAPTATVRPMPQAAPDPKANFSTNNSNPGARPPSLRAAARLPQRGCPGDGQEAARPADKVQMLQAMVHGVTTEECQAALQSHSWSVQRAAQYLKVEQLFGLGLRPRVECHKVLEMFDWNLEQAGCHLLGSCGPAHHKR
# UniProt O88343: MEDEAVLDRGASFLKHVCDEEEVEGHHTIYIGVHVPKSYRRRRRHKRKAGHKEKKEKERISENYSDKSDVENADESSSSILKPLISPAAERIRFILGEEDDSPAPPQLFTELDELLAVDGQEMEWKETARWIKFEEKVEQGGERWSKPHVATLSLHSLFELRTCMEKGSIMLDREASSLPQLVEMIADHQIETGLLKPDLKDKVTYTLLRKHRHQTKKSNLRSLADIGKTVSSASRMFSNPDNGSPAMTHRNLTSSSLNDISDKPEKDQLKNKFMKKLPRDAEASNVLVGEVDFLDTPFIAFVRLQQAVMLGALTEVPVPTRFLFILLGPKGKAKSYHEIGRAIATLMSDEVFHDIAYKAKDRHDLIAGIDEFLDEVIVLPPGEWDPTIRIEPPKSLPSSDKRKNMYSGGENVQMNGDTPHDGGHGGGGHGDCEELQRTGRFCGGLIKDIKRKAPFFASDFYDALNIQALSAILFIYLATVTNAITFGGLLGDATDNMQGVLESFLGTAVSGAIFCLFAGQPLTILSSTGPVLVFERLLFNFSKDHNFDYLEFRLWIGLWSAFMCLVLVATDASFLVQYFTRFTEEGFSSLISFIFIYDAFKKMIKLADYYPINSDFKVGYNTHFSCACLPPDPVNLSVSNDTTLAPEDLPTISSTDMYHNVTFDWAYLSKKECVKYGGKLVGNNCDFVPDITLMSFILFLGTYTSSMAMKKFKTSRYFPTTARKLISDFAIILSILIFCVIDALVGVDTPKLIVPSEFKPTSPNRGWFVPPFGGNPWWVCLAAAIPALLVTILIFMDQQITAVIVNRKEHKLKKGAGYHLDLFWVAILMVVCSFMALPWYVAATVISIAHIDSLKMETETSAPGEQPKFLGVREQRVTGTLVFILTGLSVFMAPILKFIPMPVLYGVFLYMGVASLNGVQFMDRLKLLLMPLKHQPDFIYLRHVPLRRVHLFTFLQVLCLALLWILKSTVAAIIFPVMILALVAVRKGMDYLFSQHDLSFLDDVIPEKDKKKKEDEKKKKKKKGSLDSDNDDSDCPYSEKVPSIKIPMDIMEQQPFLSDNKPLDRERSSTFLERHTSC
# UniProt O70477: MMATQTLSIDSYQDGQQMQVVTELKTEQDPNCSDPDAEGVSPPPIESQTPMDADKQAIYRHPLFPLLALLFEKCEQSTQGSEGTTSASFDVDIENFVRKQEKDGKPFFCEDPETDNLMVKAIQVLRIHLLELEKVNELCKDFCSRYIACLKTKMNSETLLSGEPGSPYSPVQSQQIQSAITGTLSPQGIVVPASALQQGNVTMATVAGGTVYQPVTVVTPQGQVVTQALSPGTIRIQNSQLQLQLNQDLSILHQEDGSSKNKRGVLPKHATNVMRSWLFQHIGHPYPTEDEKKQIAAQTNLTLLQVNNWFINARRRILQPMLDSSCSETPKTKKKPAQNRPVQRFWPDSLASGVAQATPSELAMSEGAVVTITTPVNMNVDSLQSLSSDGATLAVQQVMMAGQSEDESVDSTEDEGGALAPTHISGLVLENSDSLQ
# UniProt O55091: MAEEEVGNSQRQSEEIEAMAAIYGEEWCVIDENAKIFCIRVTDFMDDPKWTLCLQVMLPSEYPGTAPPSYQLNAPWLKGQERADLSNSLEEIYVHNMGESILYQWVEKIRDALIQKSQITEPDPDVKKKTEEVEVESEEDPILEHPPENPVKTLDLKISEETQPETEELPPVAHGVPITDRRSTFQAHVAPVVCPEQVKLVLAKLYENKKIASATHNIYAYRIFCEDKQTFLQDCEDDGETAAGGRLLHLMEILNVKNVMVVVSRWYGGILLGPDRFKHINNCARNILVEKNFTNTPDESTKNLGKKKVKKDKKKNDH
# UniProt O88545: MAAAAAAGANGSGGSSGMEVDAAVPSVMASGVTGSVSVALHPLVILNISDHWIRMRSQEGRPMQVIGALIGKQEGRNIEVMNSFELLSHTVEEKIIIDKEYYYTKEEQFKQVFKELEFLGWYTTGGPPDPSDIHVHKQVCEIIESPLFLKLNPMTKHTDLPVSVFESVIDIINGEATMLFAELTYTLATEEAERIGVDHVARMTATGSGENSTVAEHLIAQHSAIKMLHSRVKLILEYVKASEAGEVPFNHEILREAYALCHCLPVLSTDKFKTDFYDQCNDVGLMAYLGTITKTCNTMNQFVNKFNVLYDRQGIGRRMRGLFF
# UniProt O35739: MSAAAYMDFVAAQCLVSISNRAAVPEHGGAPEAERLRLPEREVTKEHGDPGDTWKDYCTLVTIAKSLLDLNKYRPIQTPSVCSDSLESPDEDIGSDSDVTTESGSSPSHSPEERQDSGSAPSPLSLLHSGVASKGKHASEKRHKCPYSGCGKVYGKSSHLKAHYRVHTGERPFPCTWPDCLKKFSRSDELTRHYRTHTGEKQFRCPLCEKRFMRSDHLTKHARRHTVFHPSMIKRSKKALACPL
# UniProt O35682: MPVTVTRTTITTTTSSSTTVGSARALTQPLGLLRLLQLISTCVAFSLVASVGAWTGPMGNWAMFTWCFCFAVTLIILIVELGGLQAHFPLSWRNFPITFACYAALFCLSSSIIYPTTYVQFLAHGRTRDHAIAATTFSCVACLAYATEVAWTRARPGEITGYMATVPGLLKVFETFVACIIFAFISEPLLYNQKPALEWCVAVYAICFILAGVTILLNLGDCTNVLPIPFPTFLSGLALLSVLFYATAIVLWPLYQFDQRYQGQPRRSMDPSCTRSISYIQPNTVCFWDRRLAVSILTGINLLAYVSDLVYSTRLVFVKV
# UniProt O70475: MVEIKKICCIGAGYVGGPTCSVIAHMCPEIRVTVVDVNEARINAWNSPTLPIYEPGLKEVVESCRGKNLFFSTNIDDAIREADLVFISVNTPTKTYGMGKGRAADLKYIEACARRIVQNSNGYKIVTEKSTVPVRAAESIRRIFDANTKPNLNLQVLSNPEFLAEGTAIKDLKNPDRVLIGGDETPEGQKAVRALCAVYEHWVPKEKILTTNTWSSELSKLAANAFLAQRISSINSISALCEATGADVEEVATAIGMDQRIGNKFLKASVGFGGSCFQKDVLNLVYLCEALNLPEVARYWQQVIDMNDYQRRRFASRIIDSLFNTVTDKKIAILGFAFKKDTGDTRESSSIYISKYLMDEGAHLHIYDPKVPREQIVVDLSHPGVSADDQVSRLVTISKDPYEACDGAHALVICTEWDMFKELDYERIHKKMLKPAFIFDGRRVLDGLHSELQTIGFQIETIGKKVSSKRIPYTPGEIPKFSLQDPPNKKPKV
# UniProt O88856: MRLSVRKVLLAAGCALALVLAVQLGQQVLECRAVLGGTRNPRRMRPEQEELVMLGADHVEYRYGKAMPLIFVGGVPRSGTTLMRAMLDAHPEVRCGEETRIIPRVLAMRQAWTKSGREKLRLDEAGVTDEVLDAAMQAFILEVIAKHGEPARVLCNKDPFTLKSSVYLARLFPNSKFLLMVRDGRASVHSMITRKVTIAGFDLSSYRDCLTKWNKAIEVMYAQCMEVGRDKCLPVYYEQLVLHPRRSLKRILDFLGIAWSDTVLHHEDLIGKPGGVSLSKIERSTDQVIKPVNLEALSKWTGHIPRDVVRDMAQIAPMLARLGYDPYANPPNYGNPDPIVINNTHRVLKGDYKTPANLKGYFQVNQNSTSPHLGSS
# The other results are listed elsewhere or left out. Small differences around the control level are noise.
# Compound: CN[C@@H]1C[C@H]2O[C@@](C)([C@@H]1OC)n1c3ccccc3c3c4c(c5c6ccccc6n2c5c31)C(=O)NC4 [staurosporine]
# Test: log2 fold change of tryptic peptide abundance, ligand vs vehicle (limited proteolysis) (log2 ratio); higher = more trypsin-susceptible (destabilized)
# Settings: ligand concentration: 20 uM; sample: mouse liver crude lysate; replicate design: treated separately
row,Target,log2 fold change
1,"UniProt O70496 (peptide sequence: HLVVVDNHNQVVGLVTR, peptide start residue: 766)",-0.289
2,"UniProt O88879 (peptide sequence: LPLNIEEAKDR, peptide start residue: 216)",0.48
3,"UniProt O88502 (peptide sequence: IHSMMIEAPITK, peptide start residue: 380)",-0.171
4,"UniProt O70405 (peptide sequence: IADFGFAR, peptide start residue: 163)",-0.572
5,"UniProt O88829 (peptide sequence: ILNPVIIK, peptide start residue: 307)",-0.215
6,"UniProt O70422 (peptide sequence: AWSDDTSQLGPDKHAR, peptide start residue: 129)",0.131
7,"UniProt O88888 (peptide sequence: IIEVNGQSVVAMPHAR, peptide start residue: 523)",-0.126
8,"UniProt O55106 (peptide sequence: MLEYALKQER, peptide start residue: 104)",0.487
9,"UniProt O70311 (peptide sequence: MYHKNPTIPIQK, peptide start residue: 110)",-0.0792
10,"UniProt O35678 (peptide sequence: YWKPSGTPK, peptide start residue: 34)",0.136
11,"UniProt O35621 (peptide sequence: KRGTFIEFR, peptide start residue: 111)",0.115
12,"UniProt O55222 (peptide sequence: GDDTPLHLAASHGHR, peptide start residue: 66)",-0.316
13,"UniProt O70333 (peptide sequence: VITPDTWK, peptide start residue: 13)",0.25
14,"UniProt O54724 (peptide sequence: LVPVERR, peptide start residue: 283)",-0.17
15,"UniProt O88522 (peptide sequence: ERCEELLHFQVSQREEK, peptide start residue: 74)",0.548
16,"UniProt O54786 (peptide sequence: FVALACNEK, peptide start residue: 85)",-0.485
17,"UniProt O88737 (peptide sequence: QAQFALQR, peptide start residue: 2443)",-0.0782
18,"UniProt O70152 (peptide sequence: SLAASPRPPQGR, peptide start residue: 9)",-0.163
19,"UniProt O70250 (peptide sequence: HYGGLTGLNK, peptide start residue: 91)",-0.418
20,"UniProt O54967 (peptide sequence: GLWLAKPSAR, peptide start residue: 560)",0.447

# Reprinted at random: two records from the list, in no set order.
row,Target,log2 fold change
4,"UniProt O70405 (peptide sequence: IADFGFAR, peptide start residue: 163)",-0.572
5,"UniProt O88829 (peptide sequence: ILNPVIIK, peptide start residue: 307)",-0.215

# More entries

row,Target,log2 fold change
1,"UniProt O88343 (peptide sequence: SYHEIGR, peptide start residue: 336)",-0.164
2,"UniProt O70472 (peptide sequence: TSPLVSETAAATQGHTASR, peptide start residue: 1256)",0.32
3,"UniProt O70305 (peptide sequence: QNSPAGSKENVK, peptide start residue: 725)",-0.411
4,"UniProt O55028 (peptide sequence: QLLDDHK, peptide start residue: 157)",-0.581
5,"UniProt O35691 (peptide sequence: TKPHLFYIPGR, peptide start residue: 236)",0.187
6,"UniProt O70477 (peptide sequence: SWLFQHIGHPYPTEDEKK, peptide start residue: 276)",0.218
7,"UniProt O55091 (peptide sequence: LLHLMEILNVK, peptide start residue: 247)",0.277
8,"UniProt O88491 (peptide sequence: LLNNMHEK, peptide start residue: 734)",-0.742
9,"UniProt O88545 (peptide sequence: FNVLYDR, peptide start residue: 306)",-0.325
10,"UniProt O70433 (peptide sequence: DLSYKDR, peptide start residue: 53)",-0.263
11,"UniProt O35739 (peptide sequence: QDSGSAPSPLSLLHSGVASK, peptide start residue: 115)",-0.341
12,"UniProt O55023 (peptide sequence: EALKNEMDVMIK, peptide start residue: 25)",-0.608
13,"UniProt O70546 (peptide sequence: YAQYQASSFQESLREENEKR, peptide start residue: 1035)",0.689
14,"UniProt O35682 (peptide sequence: SMDPSCTR, peptide start residue: 268)",-0.00485
15,"UniProt O70145 (peptide sequence: AFVEGCAAK, peptide start residue: 508)",-0.414
16,"UniProt O88622 (peptide sequence: LENVPQLNLDKSPTEK, peptide start residue: 124)",-0.0976
17,"UniProt O70475 (peptide sequence: KMLKPAFIFDGR, peptide start residue: 431)",0.142
18,"UniProt O55022 (peptide sequence: RFDGVQDPR, peptide start residue: 80)",-0.204
19,"UniProt O88856 (peptide sequence: STDQVIKPVNLEALSK, peptide start residue: 284)",-0.193
